Residue numbers refer to the chain shown, from its start. Only a part is listed here, and it is no random draw. The calls were merged from several studies; some rest on single wells. The list shows a part of the results.
Tests used:
Conditions in all cases: stereoisomer not certain
[1] = tested on: T1, OR2J2
T1 sequence (whole entry): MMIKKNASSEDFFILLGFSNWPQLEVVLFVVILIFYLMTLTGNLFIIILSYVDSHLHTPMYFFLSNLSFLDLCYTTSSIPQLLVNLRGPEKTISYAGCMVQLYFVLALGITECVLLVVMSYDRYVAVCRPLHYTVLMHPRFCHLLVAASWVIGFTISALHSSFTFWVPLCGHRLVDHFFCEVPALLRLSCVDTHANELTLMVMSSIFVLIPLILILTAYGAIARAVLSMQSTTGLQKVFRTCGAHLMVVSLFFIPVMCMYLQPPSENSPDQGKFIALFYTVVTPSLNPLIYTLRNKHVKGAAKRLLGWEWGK
Procedure, shortened: (§1)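 Transient luciferase assays in mammalian cell lines were common, though methods varied by source. The values come from published papers and their supplementary material, with extra details from the original authors when needed. Responsive refers to a measured signal the original authors judged statistically different from baseline, and non-responsive (inactive) to the remainder.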

Chains of the proteins cited; added tags and fusions are not shown. Chains listed by the source or under a name are the forms on record and can include a tag or linker.
OR2M7, as listed by the source: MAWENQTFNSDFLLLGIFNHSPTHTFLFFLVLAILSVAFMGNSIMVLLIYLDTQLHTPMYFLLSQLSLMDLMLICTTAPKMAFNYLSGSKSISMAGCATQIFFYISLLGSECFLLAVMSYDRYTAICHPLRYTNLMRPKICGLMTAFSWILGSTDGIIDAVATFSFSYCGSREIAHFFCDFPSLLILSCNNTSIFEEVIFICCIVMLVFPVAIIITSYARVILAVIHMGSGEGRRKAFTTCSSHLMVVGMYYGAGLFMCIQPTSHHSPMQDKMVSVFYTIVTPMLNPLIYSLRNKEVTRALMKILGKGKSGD

[2] = biological target: T2, OR2J3 (Homo sapiens) (UniProt O76001)
T2 sequence (whole entry): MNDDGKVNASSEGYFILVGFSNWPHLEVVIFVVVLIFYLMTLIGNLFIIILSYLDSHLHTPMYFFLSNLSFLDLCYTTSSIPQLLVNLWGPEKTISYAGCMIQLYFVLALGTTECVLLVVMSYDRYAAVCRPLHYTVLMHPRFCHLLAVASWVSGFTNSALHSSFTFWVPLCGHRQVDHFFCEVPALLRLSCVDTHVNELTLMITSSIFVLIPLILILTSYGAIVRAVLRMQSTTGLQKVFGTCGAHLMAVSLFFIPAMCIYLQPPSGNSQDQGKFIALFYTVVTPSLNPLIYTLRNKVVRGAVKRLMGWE
Procedure, shortened: as §1

[3] = biological target: T3, OR2K2 (Homo sapiens) (UniProt Q8NGT1)
T3 sequence (whole entry): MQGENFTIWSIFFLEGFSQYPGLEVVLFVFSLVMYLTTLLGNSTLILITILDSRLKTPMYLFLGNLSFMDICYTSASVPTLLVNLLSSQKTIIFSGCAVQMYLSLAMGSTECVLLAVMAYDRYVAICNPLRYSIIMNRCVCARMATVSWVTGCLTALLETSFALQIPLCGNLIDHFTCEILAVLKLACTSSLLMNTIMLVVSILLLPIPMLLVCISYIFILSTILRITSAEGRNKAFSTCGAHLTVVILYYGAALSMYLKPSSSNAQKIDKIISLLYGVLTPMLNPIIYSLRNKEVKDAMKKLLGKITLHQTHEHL
Procedure, shortened: as §1

[4] = biological target: T4, OR2L13 (Homo sapiens) (UniProt Q8N349)
T4 sequence (whole entry): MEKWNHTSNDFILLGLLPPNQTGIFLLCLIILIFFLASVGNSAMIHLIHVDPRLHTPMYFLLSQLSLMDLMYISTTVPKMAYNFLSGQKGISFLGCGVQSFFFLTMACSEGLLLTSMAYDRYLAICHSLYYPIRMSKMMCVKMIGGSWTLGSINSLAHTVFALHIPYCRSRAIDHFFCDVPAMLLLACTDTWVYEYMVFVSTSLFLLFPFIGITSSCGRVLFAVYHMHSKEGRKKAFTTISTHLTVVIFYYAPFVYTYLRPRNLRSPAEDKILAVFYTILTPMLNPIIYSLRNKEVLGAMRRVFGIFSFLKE
Procedure, shortened: as §1

[5] = biological target: T5, OR2L2 (Homo sapiens) (UniProt Q8NH16)
T5 sequence (whole entry): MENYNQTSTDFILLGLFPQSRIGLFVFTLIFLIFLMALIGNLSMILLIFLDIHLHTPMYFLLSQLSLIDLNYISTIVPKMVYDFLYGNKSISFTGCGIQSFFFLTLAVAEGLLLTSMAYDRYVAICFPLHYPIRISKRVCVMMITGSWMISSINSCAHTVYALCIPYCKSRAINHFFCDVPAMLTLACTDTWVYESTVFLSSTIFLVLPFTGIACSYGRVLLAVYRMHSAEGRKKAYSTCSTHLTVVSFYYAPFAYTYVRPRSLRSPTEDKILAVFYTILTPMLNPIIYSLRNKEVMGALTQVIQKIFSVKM
Procedure, shortened: as §1

[6] = tested on: T6, OR2L3
T6 sequence (whole entry): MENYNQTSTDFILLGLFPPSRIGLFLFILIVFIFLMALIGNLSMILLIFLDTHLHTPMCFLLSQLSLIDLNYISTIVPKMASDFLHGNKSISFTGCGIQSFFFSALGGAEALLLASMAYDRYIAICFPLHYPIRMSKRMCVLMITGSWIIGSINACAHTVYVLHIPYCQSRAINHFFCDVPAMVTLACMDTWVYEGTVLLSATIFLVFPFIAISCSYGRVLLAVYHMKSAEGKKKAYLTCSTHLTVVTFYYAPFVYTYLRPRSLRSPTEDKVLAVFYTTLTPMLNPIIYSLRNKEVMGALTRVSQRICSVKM
Procedure, shortened: as §1

[7] = biological target: T7, OR2L5 (Homo sapiens) (UniProt Q8NG80)
T7 sequence (whole entry): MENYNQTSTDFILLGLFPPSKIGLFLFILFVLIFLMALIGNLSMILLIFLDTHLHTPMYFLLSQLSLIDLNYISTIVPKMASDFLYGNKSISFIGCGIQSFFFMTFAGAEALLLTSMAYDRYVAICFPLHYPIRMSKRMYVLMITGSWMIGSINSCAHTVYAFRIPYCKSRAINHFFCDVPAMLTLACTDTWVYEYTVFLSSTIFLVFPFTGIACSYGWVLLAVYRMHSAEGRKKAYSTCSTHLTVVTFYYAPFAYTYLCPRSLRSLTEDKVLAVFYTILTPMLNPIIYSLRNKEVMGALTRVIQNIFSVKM
Procedure, shortened: as §1

[8] = tested on: T8, OR2L8
T8 sequence (whole entry): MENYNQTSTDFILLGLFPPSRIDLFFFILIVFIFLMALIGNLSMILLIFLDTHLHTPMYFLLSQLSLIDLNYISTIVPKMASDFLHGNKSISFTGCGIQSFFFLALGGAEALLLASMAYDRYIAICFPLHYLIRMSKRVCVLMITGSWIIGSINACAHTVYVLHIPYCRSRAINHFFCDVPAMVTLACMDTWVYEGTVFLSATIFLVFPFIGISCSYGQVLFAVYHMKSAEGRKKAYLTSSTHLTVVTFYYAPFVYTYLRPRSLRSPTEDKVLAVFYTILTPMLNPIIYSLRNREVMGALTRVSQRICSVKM
Procedure, shortened: as §1

[9] = tested on: T9, OR2M2
T9 sequence (whole entry): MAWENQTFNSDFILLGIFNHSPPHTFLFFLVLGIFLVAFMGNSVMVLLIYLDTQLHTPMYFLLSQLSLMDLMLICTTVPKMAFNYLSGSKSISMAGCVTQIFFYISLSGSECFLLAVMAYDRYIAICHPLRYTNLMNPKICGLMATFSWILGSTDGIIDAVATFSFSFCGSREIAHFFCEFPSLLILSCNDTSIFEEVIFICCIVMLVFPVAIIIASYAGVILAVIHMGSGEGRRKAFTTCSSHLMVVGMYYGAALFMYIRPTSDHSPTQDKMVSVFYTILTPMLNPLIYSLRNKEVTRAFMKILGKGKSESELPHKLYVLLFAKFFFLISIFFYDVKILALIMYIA
Procedure, shortened: as §1

[10] = biological target: T10, OR2M3 (Homo sapiens) (UniProt Q8NG83)
T10 sequence (whole entry): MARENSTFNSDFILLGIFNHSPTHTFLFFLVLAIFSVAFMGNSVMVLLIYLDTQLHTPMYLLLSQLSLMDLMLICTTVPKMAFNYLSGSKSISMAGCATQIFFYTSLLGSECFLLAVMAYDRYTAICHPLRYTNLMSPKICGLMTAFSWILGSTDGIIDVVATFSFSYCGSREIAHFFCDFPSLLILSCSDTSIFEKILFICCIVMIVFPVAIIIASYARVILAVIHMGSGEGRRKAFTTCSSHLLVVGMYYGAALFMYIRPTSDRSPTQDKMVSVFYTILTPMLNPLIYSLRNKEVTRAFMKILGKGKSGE
Procedure, shortened: as §1

[11] = biological target: T11, OR2M4 (Homo sapiens) (UniProt Q96R27)
T11 sequence (whole entry): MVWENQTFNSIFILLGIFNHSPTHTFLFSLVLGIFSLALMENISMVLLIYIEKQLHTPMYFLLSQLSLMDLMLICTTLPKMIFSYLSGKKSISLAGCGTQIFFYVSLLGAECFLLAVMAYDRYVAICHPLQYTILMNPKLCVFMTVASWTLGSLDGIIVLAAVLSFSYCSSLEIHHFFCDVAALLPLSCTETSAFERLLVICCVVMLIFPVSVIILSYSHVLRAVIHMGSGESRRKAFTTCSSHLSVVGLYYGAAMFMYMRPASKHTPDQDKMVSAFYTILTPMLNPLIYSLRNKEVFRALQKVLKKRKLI
Procedure, shortened: as §1

[12] = biological target: T12, OR2M7 (Homo sapiens) (UniProt Q8NG81)
T12 sequence (whole entry): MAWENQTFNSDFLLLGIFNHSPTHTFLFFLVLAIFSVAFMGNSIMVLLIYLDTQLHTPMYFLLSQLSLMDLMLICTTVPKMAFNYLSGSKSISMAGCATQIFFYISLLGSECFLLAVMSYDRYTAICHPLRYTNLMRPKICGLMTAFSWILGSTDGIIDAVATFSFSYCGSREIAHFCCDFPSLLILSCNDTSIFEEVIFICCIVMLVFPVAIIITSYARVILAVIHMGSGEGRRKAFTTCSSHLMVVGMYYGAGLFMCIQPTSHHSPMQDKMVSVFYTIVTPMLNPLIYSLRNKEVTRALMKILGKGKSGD
Procedure, shortened: as §1

[13] = tested on: T13, OR2M7
T13 sequence (whole entry): T12 sequence (whole entry) with F35L, V78A, C178F
Procedure, shortened: as §1

[14] = tested on: T14, OR2M7; remark: listed apart in the source
T14 sequence (whole entry): T12 sequence (whole entry) with F35L, V78A, C178F, D191N
Procedure, shortened: as §1

[15] = tested on: T15, OR2S1
T15 sequence (whole entry): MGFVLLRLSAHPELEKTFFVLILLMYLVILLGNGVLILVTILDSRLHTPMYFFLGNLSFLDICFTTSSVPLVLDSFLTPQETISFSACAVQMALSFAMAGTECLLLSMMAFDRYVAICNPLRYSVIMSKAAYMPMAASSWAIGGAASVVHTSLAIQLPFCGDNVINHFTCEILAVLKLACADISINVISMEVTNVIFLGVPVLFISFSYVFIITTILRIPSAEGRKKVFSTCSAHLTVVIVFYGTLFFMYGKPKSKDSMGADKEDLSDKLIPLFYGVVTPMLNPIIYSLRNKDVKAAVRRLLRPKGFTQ
Procedure, shortened: as §1

[16] = biological target: T16, OR2T10 (Homo sapiens) (UniProt Q8NGZ9)
T16 sequence (whole entry): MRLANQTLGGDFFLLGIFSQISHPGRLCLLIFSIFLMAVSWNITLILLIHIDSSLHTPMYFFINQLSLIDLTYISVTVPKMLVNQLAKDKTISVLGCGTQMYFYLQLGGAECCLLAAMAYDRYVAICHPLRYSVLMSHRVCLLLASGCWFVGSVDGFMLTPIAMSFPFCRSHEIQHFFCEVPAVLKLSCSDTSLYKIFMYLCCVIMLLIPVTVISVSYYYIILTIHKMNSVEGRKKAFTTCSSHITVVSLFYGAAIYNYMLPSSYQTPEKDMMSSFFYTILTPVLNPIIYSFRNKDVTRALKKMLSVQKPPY
Procedure, shortened: as §1

[17] = tested on: T17, OR2T1
T17 sequence (whole entry): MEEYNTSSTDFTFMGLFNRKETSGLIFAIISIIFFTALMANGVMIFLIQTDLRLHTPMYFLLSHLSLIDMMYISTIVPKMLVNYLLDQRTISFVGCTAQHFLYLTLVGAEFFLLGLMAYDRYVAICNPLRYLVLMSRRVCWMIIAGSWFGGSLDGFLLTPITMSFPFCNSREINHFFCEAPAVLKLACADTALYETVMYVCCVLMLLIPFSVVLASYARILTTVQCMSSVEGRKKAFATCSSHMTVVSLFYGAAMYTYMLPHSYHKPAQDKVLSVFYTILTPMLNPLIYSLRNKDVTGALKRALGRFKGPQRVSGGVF
Procedure, shortened: as §1

[18] = tested on: T18, OR2T2
T18 sequence (whole entry): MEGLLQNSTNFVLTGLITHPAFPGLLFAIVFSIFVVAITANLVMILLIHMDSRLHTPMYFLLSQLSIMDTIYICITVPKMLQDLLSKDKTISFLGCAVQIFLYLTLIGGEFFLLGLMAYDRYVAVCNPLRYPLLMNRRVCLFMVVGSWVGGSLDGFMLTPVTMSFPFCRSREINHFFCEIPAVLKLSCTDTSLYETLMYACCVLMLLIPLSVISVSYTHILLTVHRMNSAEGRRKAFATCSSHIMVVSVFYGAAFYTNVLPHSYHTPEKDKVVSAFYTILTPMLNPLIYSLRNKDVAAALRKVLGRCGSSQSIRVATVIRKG
Procedure, shortened: as §1

[19] = biological target: T19, OR2T3 (Homo sapiens) (UniProt Q8NH03)
T19 sequence (whole entry): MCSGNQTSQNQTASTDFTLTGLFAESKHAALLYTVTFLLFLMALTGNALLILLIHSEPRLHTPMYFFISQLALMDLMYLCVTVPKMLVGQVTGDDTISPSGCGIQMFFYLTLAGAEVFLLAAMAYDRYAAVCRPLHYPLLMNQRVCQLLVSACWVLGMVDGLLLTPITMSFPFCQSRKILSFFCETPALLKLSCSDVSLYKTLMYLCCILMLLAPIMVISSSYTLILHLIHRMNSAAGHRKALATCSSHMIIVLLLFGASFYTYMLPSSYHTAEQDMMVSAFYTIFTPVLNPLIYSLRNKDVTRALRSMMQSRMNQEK
Procedure, shortened: as §1

[20] = tested on: T20, OR2T4
T20 sequence (whole entry): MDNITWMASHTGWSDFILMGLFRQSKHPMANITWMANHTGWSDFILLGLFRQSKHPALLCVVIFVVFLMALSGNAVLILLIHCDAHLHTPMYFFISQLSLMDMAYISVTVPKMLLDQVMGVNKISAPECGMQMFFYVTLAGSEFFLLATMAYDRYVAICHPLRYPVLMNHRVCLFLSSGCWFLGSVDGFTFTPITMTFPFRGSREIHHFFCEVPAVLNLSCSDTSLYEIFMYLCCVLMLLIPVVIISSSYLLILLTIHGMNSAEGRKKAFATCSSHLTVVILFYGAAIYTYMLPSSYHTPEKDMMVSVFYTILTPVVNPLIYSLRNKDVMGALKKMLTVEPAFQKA
Procedure, shortened: as §1

Measured: odorant receptor agonist call

CS
active: [18]
inactive: all other assays above

CCC(C)=O
active: [2]
inactive: all other assays above

— the M2OR odorant receptor database
